From PMC3591284 come the findings set out here.

No constants are given. Whether binding was seen depends on the method and setting. A result given as binding can be weak or reduced; the word gives no strength. Where a sequence is shown, tags or fusion partners need not be part of it.

The experiment deals with T1, GST-PRMT4 (UniProt Q86X55).
T1 sequence: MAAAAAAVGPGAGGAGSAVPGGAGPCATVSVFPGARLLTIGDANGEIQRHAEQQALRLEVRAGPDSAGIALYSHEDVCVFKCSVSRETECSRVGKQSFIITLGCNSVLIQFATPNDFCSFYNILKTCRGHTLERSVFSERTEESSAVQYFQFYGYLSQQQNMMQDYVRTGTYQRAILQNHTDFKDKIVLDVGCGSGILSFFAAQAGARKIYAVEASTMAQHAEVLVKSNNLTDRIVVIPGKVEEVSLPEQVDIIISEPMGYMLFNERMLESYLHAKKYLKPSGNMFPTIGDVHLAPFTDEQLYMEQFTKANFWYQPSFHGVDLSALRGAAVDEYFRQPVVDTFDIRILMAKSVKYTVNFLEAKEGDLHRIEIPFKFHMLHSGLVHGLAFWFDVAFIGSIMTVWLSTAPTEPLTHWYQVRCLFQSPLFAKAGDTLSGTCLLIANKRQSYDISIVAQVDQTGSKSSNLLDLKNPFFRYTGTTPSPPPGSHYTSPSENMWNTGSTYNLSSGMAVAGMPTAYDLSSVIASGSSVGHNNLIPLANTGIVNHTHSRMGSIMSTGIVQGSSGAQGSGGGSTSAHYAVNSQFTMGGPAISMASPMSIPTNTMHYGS
Kind of experiment: pull-down; glutathione beads-bound recombinant GST, GST-PRMT1, -4 and -6 with recombinant His-tagged c-Myb; anti-c-Myb Western blot; both purified.

Take recombinant His-tagged c-Myb: the binding entry is “binds”.
